Results are given in words; binding and its absence hold for the method and conditions named. Binding calls can cover weak binding; strength is not graded here. Where a sequence is shown, tags or fusion partners need not be part of it.
The substances below were run against T1, Nog1-TAP (LSU biogenesis factor Nog1 chromosomally encoded in fusion with a tandem affinity purification tag) (S. cerevisiae) (UniProt Q02892) (assay: cryo-EM structure; LSU precursor particles (with pre-rRNA) associated with TAP tagged Nog1, purified in one step on rabbit IgG magnetic beads from yeast extract in buffer A200 (200 mM potassium chloride, 20 mM Tris pH8, 5 mM magnesium acetate), eluted with TEV protease; single particle cryo-EM, maps of sub-nanometre resolution, models by flexible fitting of published models; control strain Y1877 and strains with expression of rpL2, rpL25 or rpL34 shut down for 4 h in glucose).
T1 sequence: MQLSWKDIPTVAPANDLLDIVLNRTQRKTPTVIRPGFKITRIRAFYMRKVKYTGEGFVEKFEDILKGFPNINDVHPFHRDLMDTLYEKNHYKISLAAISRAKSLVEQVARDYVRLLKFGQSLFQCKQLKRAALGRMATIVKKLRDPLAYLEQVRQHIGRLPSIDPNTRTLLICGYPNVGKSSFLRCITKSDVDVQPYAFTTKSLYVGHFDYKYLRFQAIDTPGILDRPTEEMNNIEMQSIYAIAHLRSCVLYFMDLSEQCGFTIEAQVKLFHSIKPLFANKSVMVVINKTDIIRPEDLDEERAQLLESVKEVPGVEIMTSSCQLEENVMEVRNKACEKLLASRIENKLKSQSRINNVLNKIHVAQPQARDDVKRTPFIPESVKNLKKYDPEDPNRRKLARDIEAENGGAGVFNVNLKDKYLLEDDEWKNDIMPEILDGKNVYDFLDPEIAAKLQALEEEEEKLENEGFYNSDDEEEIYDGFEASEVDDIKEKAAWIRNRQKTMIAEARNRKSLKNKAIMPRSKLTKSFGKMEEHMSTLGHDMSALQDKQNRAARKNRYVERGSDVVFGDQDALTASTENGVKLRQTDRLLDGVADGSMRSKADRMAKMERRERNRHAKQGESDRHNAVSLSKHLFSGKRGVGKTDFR

By UniProt entry, the sequences of proteins in these tests, tags left out. Where a name states a change or a piece, a line headed by the entry shows the natural chain unless it says otherwise.
UniProt P0C0W9: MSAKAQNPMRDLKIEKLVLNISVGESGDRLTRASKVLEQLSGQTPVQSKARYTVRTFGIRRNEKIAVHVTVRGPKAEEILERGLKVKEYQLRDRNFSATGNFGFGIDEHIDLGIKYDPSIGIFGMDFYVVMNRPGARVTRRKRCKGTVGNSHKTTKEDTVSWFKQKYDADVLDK
UniProt Q02753: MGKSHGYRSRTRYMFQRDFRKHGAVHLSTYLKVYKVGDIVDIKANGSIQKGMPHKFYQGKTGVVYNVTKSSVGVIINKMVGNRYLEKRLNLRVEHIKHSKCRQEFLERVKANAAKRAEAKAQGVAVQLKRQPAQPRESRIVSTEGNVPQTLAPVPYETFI
UniProt P87262: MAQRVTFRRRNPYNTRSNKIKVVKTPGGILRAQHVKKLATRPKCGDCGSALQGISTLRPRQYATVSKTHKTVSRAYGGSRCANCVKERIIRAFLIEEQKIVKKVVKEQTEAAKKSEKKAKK

Row | Substance | binding
1 | rpL11 (from UniProt P0C0W9) | binds
2 | rpL21 (from UniProt Q02753) | binds
3 | rpL34 (eL34) (from UniProt P87262) | binds

Source: publication PMC8610266
